Where “and” joins values, the source holds several entries; their conditions need not be identical. Equal entries are not always repeated. Hit rate of the full screen: of about 320,000 compounds, about 22,000 (6.9%) were called active. Inconclusive results, whose numbers are uncertain, are shown with a selection of clear calls. Calls follow the shape of the dose curve; as a rule, active = well fitted inhibition curve with a large enough effect; inconclusive = small, poorly fitted or top-dose-only effect, or another doubt; inactive = no such curve, though single readings can be large or run the other way. A potency beside an inconclusive call is a rough fit, not a confirmed value.
Experiment: Primary qHTS for delayed death inhibitors of the malarial parasite plastid, 96 hour incubation
Details: P. falciparum luciferase reporter growth; series mostly up to 28.7 µM
Outline: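 P. falciparum expressing integrated firefly luciferase grown in erythrocytes (2% hematocrit, 0.05% parasitemia final) with compounds for 96 hours at 37 C, 5% CO2. Growth inhibition read as loss of luminescence after adding luciferase detection reagent.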
Potency is read from the fitted curve at half-maximal effect.

Row | Structure (SMILES) | Potency
1 | COc1cc2c(c(OC)c1OC)-c1ccc(OC)c(=O)cc1[C@@H](NC(C)=O)CC2 | inconclusive: 9.53 µM [inhibitor, partial curve, poor fit] and inconclusive: 9.28 µM [inhibitor, partial curve, poor fit]
2 | CN(C)C(CNC(C(=O)Nc1ccc(F)cc1)c1ccccc1)c1ccccc1 (configuration not stated) | inactive
3 | CCS(=O)(=O)N1CCN(c2ccc(S(=O)(=O)N3CCOCC3)cc2)CC1 | inconclusive: 3.7 µM [inhibitor, partial curve, poor fit]
4 | COc1ccc(OCCCC(=O)Nc2cc(S(=O)(=O)N3CCCCC3)ccc2C)cc1 | inconclusive: 13.1 µM [inhibitor, single point]
5 | COc1ccc(NCC(=O)N/N=C/c2ccc3c(c2)OCCO3)cc1 | inactive
6 | CCCc1noc2c1/C(=N\O)CC(c1ccccc1)C2 (configuration not stated) | inconclusive: 9.28 µM [inhibitor, single point]
7 | O=C1CCCC2=C1C(c1ccc(O)cc1)c1c(ccc3ccccc13)N2 (configuration not stated) | inconclusive: 18.5 µM [inhibitor, single point]
8 | COc1cc2c(cc1OC)CN(C(=O)c1cc(S(=O)(=O)N3CCOCC3)c(Cl)cc1Cl)CC2 | active: 5.22 µM
9 | Cc1ccc(S(=O)(=O)N(C)C)cc1NC(=O)COC(=O)/C=C/c1ccc2c(c1)OCO2 | inconclusive: 18.5 µM [inhibitor, single point]
10 | ClC(Cl)(Cl)c1nc2ccccc2n2nncc12 | inconclusive: 0.657 µM [inhibitor, full curve, poor fit]
11 | COC(=O)C1=C(c2ccc(Cl)c(C(F)(F)F)c2)C[C@@H]2CC[C@H]1N2C(=O)N1CCOCC1 | inconclusive: 10.4 µM [inhibitor, partial curve, poor fit]
12 | COc1cccc(C2c3c(oc4ccc(F)cc4c3=O)C(=O)N2CCCN2CCOCC2)c1 (configuration not stated) | inconclusive: 11.7 µM [inhibitor, single point]
13 | CC(=O)c1c(C)[nH]c(C(=O)O)c1C | inconclusive: 1.47 µM [inhibitor, full curve, poor fit]
14 | CS(=O)(=O)c1ccc(C(=O)N(Cc2ccccc2)c2ccccc2)cc1 | inconclusive: 2.33 µM [inhibitor, partial curve, poor fit]
15 | O=C(Nc1ccc(Cl)cc1)N1CCN(c2ccc3nnc(-c4ccc(F)cc4)n3n2)CC1 | inconclusive: 2.94 µM [inhibitor, full curve, poor fit]
16 | CCCCNC(=O)Nc1ccnn1C1CCCCC1 | inconclusive: 10.4 µM [inhibitor, single point]
17 | O=C(c1ccco1)N1CCN(S(=O)(=O)c2cc(Cl)ccc2Cl)CC1 | inconclusive: 18.5 µM [inhibitor, single point]
18 | COc1ccc(N2CCN(C(=O)c3sc4ncn(CC(=O)N5CCCCC5)c(=O)c4c3C)CC2)cc1 | inconclusive: 18.5 µM [inhibitor, single point]
19 | COc1ccc2c(c1OC)C(=O)N(c1cccc(/C=C/C(=O)O)c1)C2 | inactive
20 | O=C(CNC(=O)c1ccccc1)N/N=C/c1ccc([N+](=O)[O-])o1 | inconclusive: 0.294 µM [inhibitor, full curve, poor fit]
21 | Cc1ccc(C(=O)NNC(=S)NC(=O)c2ccc(Cl)cc2)cc1 | inconclusive: 1.17 µM [inhibitor, partial curve, poor fit]

Row | Structure (SMILES) | Potency
22 | C/C(=N\NC(=O)Cn1nc(C)c([N+](=O)[O-])c1C)c1ccc(O)cc1 | inconclusive: 8.28 µM [inhibitor, partial curve, poor fit]
23 | O=C(O)CNc1nc(-c2ccccc2)nc2c1oc1ccccc12 | inactive
24 | COc1ccc2c(CC(=O)Nc3ccccc3OC)coc2c1 | inactive
25 | O=C(Cn1nnc2ccccc2c1=O)N[C@@H](Cc1c[nH]c2ccccc12)C(=O)O | inconclusive: 16.5 µM [inhibitor, single point]
26 | O=C(COc1cccc(F)c1)NNC(=O)Cc1ccc(S(=O)(=O)N2CCOCC2)s1 | inconclusive: 20.8 µM [inhibitor, single point]
27 | COc1ccccc1CNC(=O)COC(=O)C1CCN(c2ccc(C(F)(F)F)cn2)CC1 | inactive
28 | Cc1cccc(-n2c(O)c(/C=N/NC(=O)c3ccccc3Cl)c3ccccc3c2=O)n1 | inactive
29 | O=C(NN=C1CCCC1)c1[nH]c2ccc(Cl)cc2c1-c1ccccc1 | active: 13.1 µM
30 | C=CCN1C(=O)C2(/C(=C(\O)c3ccc4c(c3)OCCO4)C(=O)C(=O)N2CCCOC)c2ccccc21 (configuration not stated) | inconclusive: 11.7 µM [inhibitor, single point]
31 | COc1ccc(CCN2C(=O)CSC2c2ccc(F)cc2)cc1 (configuration not stated) | inactive
32 | COc1ccccc1CC(=O)N1CCN(C(=O)c2ccco2)CC1 | inconclusive: 3.7 µM [inhibitor, partial curve, poor fit]
33 | Cc1ccc(OCC(=O)Nc2ccc(C(N)=O)cc2)cc1 | inconclusive: 7.38 µM [inhibitor, partial curve, poor fit]
34 | NC(=O)N1CC(O)CC1C(=O)Nc1ccc(Cl)c(Cl)c1 (configuration not stated) | inconclusive: 11.7 µM [inhibitor, single point]
35 | Cc1ccc(NCc2nc3ccccc3n2CCOc2ccccc2)cc1 | inconclusive: 18.5 µM [inhibitor, partial curve, poor fit]
36 | N#Cc1c(-c2ccc(Cl)cc2)ccnc1N1CCOCC1 | active: 4.65 µM
37 | O=C(COc1ccccc1-c1ccccc1)Nc1ccc(S(=O)(=O)NCc2ccco2)cc1 | inconclusive: 5.86 µM [inhibitor, partial curve, poor fit]
38 | CCc1nc(SCC(=O)N2CCC(C)CC2)c2c(=O)n(C)c(=O)n(C)c2n1 | inconclusive: 18.5 µM [inhibitor, single point]
39 | CCC(Sc1nc(-c2ccccc2)c(C#N)c(=O)[nH]1)C(=O)Nc1cc(C)on1 (configuration not stated) | inconclusive: 20.8 µM [inhibitor, partial curve, poor fit]
40 | CCN1CCN(c2sc(S(C)(=O)=O)nc2S(=O)(=O)c2ccc(Cl)cc2)CC1 | inconclusive: 2.08 µM [inhibitor, partial curve, poor fit]
41 | O=C1C2C3c4ccccc4C(c4ccccc43)C2C(=O)N1c1ccncc1 (configuration not stated) | inconclusive: 1.65 µM [inhibitor, full curve, poor fit]
42 | C=C(C(=O)Oc1ccccc1C(C)(C)C)c1ccccc1 | inconclusive: 16.5 µM [inhibitor, single point]

From compound 39 as far as 42, as listed above:
Row | Structure (SMILES) | Potency
39 | CCC(Sc1nc(-c2ccccc2)c(C#N)c(=O)[nH]1)C(=O)Nc1cc(C)on1 (configuration not stated) | inconclusive: 20.8 µM [inhibitor, partial curve, poor fit]
40 | CCN1CCN(c2sc(S(C)(=O)=O)nc2S(=O)(=O)c2ccc(Cl)cc2)CC1 | inconclusive: 2.08 µM [inhibitor, partial curve, poor fit]
41 | O=C1C2C3c4ccccc4C(c4ccccc43)C2C(=O)N1c1ccncc1 (configuration not stated) | inconclusive: 1.65 µM [inhibitor, full curve, poor fit]
42 | C=C(C(=O)Oc1ccccc1C(C)(C)C)c1ccccc1 | inconclusive: 16.5 µM [inhibitor, single point]

Following part.

Row | Structure (SMILES) | Potency
43 | Cc1ccc(NC(=O)NNC(=O)C2CCN(Cc3ccc(F)cc3Cl)CC2)cc1 | inconclusive: 0.262 µM [inhibitor, full curve, poor fit]
44 | Cc1cc(C(=O)COc2ccc([N+](=O)[O-])cc2)c(C)n1C1CC1 | inconclusive: 5.22 µM [inhibitor, partial curve]
45 | COc1cc(OC)c(N(C)S(=O)(=O)c2cccc(C(=O)NC(C)C3CC4CCC3C4)c2)cc1Cl (configuration not stated) | active: 2.62 µM
46 | Cc1ccc(S(=O)CCNC(=O)Cc2ccc(Cl)cc2)cc1 (configuration not stated) | inconclusive: 0.828 µM [inhibitor, full curve, poor fit]
47 | Cn1c(SCC(=O)Nc2cccc(O)c2)nnc1-c1ccc(S(=O)(=O)N2CCOCC2)cc1 | inconclusive: 4.65 µM [inhibitor, partial curve, poor fit]
48 | O=C1CCCCCN1Cc1ccccc1 | inconclusive: 0.0029 µM [inhibitor, full curve, poor fit]
49 | COc1ccc(O)c(/C=N/NS(=O)(=O)c2ccc(C)cc2)c1 | inconclusive: 13.1 µM [inhibitor, single point]
50 | CN(C)C(=O)COc1ccc(C(=O)/C=C/c2cccnc2)cc1 | inconclusive: 6.57 µM [inhibitor, partial curve, poor fit]
51 | FC(F)(F)c1cccc(Cn2nnnc2-c2cc(Cl)cc(Cl)c2)c1 | inconclusive: 5.86 µM [inhibitor, partial curve, poor fit]
52 | CC(C)(C)c1ccc(C(=O)C2CCCN(C(=O)c3ccccn3)C2)cc1 (configuration not stated) | inconclusive: 14.7 µM [inhibitor, single point]
53 | Cc1nn(C)cc1S(=O)(=O)NCc1ccc2c(c1)OCO2 | inconclusive: 18.5 µM [inhibitor, single point]
54 | CNC(=O)N(O)C1N(NC(=O)Nc2cccc3ccccc23)C(=S)SC1(C)C (configuration not stated) | inconclusive: 11.7 µM [inhibitor, single point]
55 | CCOC(=O)c1sc(Nc2ccc(Br)cc2)nc1C | inconclusive: 11.7 µM [inhibitor, single point]
56 | CCCN1C(=O)c2cc(C(=O)Nc3ccccc3OC)ccc2C1Nc1ccccc1OC (configuration not stated) | inconclusive: 0.262 µM [inhibitor, full curve]
57 | COc1ccc(NC(=O)c2cccc(N3C(=O)C4C5C=CC(C5)C4C3=O)c2)cc1Cl (configuration not stated) | inactive
58 | CS/C(=C(/C#N)S(=O)(=O)c1ccc(Cl)cc1)N1CCOCC1 | inconclusive: 5.86 µM [inhibitor, partial curve]
59 | COc1ccc(-c2[nH]ncc2CNCCCSC)cc1F | active: 5.22 µM
60 | CCOC(=O)Nc1ccc(C(=O)NCC2CCCO2)cc1 (configuration not stated) | inconclusive: 0.0262 µM [inhibitor, full curve, poor fit]
61 | CCCNC(=O)c1ccc(N2CCC3(CC2)CC(c2ccccc2)=NO3)c(NC(=O)c2ccccc2)c1 | active: 5.86 µM
62 | COc1ccc(OCc2cccc(C(=O)Nc3ccc(CN4CCCCC4)cc3)c2)cc1 | inconclusive: 3.29 µM [inhibitor, full curve, poor fit]

From PubChem BioAssay AID504834 (National Center for Advancing Translational Sciences (NCATS), 2011)
